Values of other authors, collected in patent US20070190132A1, “Pharmaceutical compositions for oral and topical administration” (IVAX-CR a.s., priority 1999, published 2007).

Details: immediately after preparation

solubility in water: about 5 μg/ml
Compound: CC(=O)O[C@H]1C(=O)[C@@]2(C)[C@H]([C@H](OC(=O)c3ccccc3)[C@]3(O)C[C@H](OC(=O)[C@H](O)[C@@H](NC(=O)c4ccccc4)c4ccccc4)C(C)=C1C3(C)C)[C@]1(OC(C)=O)CO[C@@H]1C[C@@H]2O [paclitaxel]
